The chains behind the UniProt entries cited, without tags or fusion partners. Where a name states a change or a piece, a line headed by the entry shows the natural chain unless it says otherwise.
UniProt P46063: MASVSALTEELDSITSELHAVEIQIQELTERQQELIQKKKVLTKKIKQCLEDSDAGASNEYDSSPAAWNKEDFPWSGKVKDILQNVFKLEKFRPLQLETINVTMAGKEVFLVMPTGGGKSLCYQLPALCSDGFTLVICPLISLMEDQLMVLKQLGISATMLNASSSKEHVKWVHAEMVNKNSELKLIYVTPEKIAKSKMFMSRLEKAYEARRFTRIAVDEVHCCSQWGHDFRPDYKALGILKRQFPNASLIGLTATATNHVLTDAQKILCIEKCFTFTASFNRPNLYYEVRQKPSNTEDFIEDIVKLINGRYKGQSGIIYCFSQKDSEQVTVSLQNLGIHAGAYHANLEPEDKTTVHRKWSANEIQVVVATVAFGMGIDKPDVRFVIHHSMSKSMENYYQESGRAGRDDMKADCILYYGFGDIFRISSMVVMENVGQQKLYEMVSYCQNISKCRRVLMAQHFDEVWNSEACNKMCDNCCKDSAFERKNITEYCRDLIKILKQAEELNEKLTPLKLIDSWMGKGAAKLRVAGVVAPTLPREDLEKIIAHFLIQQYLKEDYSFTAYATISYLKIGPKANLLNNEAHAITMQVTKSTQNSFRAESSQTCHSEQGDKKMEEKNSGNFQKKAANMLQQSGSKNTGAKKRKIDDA

Screen size: about 240,000 compounds; about 1,300 (0.54%) were called active. Inconclusive results, whose numbers are uncertain, are shown with a selection of clear calls. Calls follow the shape of the dose curve; as a rule, active = well fitted inhibition curve with a large enough effect; inconclusive = small, poorly fitted or top-dose-only effect; inactive = flat fitted curve, though single readings scatter. Potencies beside an inconclusive call are fits to weak or partial responses and may not hold up.
What follows are molecules tested against ATP-dependent DNA helicase Q1 (Homo sapiens) (UniProt P46063) (assay: qHTS Assay for Inhibitors of RecQ-Like Dna Helicase 1 (RECQ1)). Conditions: RECQ1 DNA unwinding, red fluorescence kinetic read; activity, negative = inhibition: at 57.3 µM (top of the series); series mostly up to 57.3 µM.
Outline: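 RECQ1T1 50 nM; forked duplex (20 bp + 30-nt ss tails) 200 nM, ATP 2 mM final; pH 8.0, 2 mM MgCl2, 2.5 ug/ml poly(dI-dC); 15 min compound preincubation; discontinuous kinetic read over 2 h at RT.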
In the case of `CC(CC(C)(C)C)CP(=O)(O)CC(C)CC(C)(C)C` (stereo not drawn), the “activity, negative = inhibition” value is reported as inactive: -4.35%. With `COc1cc(C(CC(=O)N2CCCC2)c2c(OC)cc(OC)c3c(-c4ccccc4)cc(=O)oc23)cc(OC)c1OC` (stereo not drawn) the Potency was active: 17.8 µM. With `Cc1ccc(-n2nnnc2SCC(=O)NNC(=O)c2ccco2)c(C)c1` the Potency was inconclusive: 39.8 µM [inhibitor, partial curve]. In the case of `CCc1ccc(/C(C)=N\Nc2ccc([N+](=O)[O-])cc2)cc1`, the “outcome” value is reported as “inactive”. In the case of `Cc1[nH][nH]c(=O)c1C(c1ccc(-c2ccc(F)cc2)o1)c1c(C)[nH][nH]c1=O`, the “activity, negative = inhibition” value is reported as inactive: 6.76%. For `CC1(C)Nc2ccc(O)cc2-c2c1ssc2=S`, the Potency was inconclusive: 39.8 µM [inhibitor, single point]. In the case of `C=CCn1c(=S)[nH]c2scc(-c3ccco3)c2c1=O`, the Potency is reported as active: 31.6 µM. In the case of `O=C(Nc1nnc(SCc2c(Cl)cccc2Cl)s1)C1CC(=O)N(c2ccc3c(c2)OCCO3)C1` (stereo not drawn), the Potency is reported as inconclusive: 39.8 µM [inhibitor, single point]. In the case of `COC(=O)N/N=C/c1cc(N=Nc2ccccc2)ccc1O`, the “activity, negative = inhibition” value is reported as inactive: -9.82%. With `O=C(NC(=S)N1CCN(c2nc(-c3ccccc3)cs2)CC1)c1cccnc1` the Potency was inconclusive: 0.178 µM [inhibitor, full curve, poor fit]. In the case of `CCOC(=O)c1c(NC(C)=O)sc2c(OCCN(CC)CC)c(Br)ccc12`, the “outcome” value is reported as “inactive”. With `CC(C)=CCC/C(C)=C/CO/N=C1/C[C@@H](O)[C@@H](O)[C@@H]2[C@H]3C(=O)N(c4ccc(F)cc4F)C(=O)[C@@H]3CC[C@H]12` the outcome was “inactive [at 11.5 µM]”. `COc1ccc(C2CC(=O)Oc3c(C(C)C)ccc(C)c32)cc1` (stereo not drawn) was tested, and the Potency was inconclusive: 7.94 µM [inhibitor, full curve]. For `C=CCn1c(SCC(=O)Nc2ccc3c(c2)CCC3)nnc1-c1cccs1`, the “activity, negative = inhibition” value was inactive: -6.95%. With `COc1ccc2cc(/C(C)=N/NC(=S)Nc3cc(S(=O)(=O)N4CCOCC4)ccc3N3CCOCC3)ccc2c1` the Potency was inconclusive: 39.8 µM [inhibitor, single point]. For `Cc1cc(NS(=O)(=O)c2ccc(NC(=O)Cc3cccs3)cc2)no1`, the “activity, negative = inhibition” value was inactive: 18.9%. In the case of `COc1cc(/C=C2\Oc3cc(O)ccc3C2=O)ccc1O`, the Potency is reported as inconclusive: 28.2 µM [inhibitor, single point]. `Cc1cccc2cc(CN(Cc3cccnc3)C(=O)c3ccncc3)c(=O)[nH]c12` was tested, and the Potency was inconclusive: 6.31 µM [inhibitor, single point]. With `O=C1CSC(=S)N1CC1CCCO1` (stereo not drawn) the Potency was inconclusive: 8.91 µM [inhibitor, single point]. `C/C(=C\C=C(C#N)C#N)c1cc(C#N)c(N)o1` was tested, and the Potency was active: 14.1 µM. In the case of `CCN1/C(=C/C=C/C=C/c2sc3ccccc3[n+]2CC)Sc2ccccc21`, the Potency is reported as inconclusive: 35.5 µM [inhibitor, single point]. `CCOC(=O)c1c(C)nc2sc3c(=O)n(-c4ccc(C(C)=O)cc4)nnc3c2c1-c1ccc(Cl)cc1` was tested, and the Potency was inconclusive: 39.8 µM [inhibitor, single point]. With `C/C=C(/C)C(=O)OC1c2c(ccc3ccc(=O)oc23)OC(C)(C)C1OC(=O)/C(C)=C\C` (stereo not drawn) the Potency was inconclusive: 22.4 µM [inhibitor, single point]. With `Cc1nn(-c2ccccc2)c(N2CCCC2)c1/C=N/Nc1ccc(S(N)(=O)=O)cc1[N+](=O)[O-]` the Potency was inconclusive: 3.55 µM [inhibitor, partial curve]. For `CCOC(=O)CSc1n[nH]c(=S)s1`, the “activity, negative = inhibition” value was inactive: -3.29%. `CC(C)C(=O)N1CCN(c2nc(-c3ccccc3)c3c(c2C#N)CC(C)(C)OC3)CC1` was tested, and the Potency was inconclusive: 0.794 µM [inhibitor, single point]. With `COc1cc2c(cc1OC)C(C(=O)NCc1ccco1)C1c3ccccc3CCN1C2=O` (stereo not drawn) the Potency was inconclusive: 5.62 µM [inhibitor, full curve]. For `COC(C(=O)Nc1ccc(S(=O)(=O)Nc2ccc(C)c(C)c2)cc1)c1ccccc1` (stereo not drawn), the Potency was inconclusive: 35.5 µM [inhibitor, single point]. For `O=C(O)c1c(Sc2ccccc2)c2cc(Cl)ccc2n1Cc1ccc(Cl)cc1`, the Potency was inconclusive: 35.5 µM [inhibitor, single point]. In the case of `CSc1cccc(NC(=S)N(Cc2ccccc2)Cc2ccccn2)c1`, the Potency is reported as inconclusive: 20 µM [inhibitor, partial curve]. In the case of `C=C1C(=O)OC2C=C(C)CCC=C(C)CCC12` (stereo not drawn), the Potency is reported as inconclusive: 12.6 µM [inhibitor, partial curve]. For `C/C(CCC(=O)OC[C@@H]1O[C@H](C#Cc2ccccc2)C=C[C@@H]1Oc1ccc(C)cc1)=N/O[C@@H](C)c1cn([C@H]2COC[C@H]2O)nn1`, the activity, negative = inhibition was inactive: -3.58% [at 11.5 µM]. In the case of `COc1ccccc1Nc1nc(-c2c(C)nc3ncccn23)cs1`, the Potency is reported as inconclusive: 35.5 µM [inhibitor, single point]. With `Cc1cccc(NC(=S)NCCN2CCOCC2)c1` the Potency was inconclusive: 0.158 µM [inhibitor, partial curve, poor fit]. `O=C1CC(c2ccc(O)c(O)c2)Oc2c1ccc(O)c2O` (stereo not drawn) was tested, and the Potency was active: 1.58 µM. For `Cc1cc(C(=O)CSc2nnc(-c3ccncc3)n2-c2ccccc2)c(C)n1C`, the Potency was inconclusive: 35.5 µM [inhibitor, single point]. `CCOc1cccc(NC(=O)c2ccc(S(=O)(=O)N(C)C)cc2)c1` was tested, and the Potency was inconclusive: 0.562 µM [inhibitor, partial curve, poor fit]. In the case of `CCOC(=O)C1(CC2CC2)CCN(S(=O)(=O)/C=C/c2ccccc2)CC1`, the Potency is reported as inconclusive: 39.8 µM [inhibitor, single point]. For `COc1ccccc1NS(=O)(=O)c1cccc(NC(=O)Nc2cccc(Cl)c2)c1`, the “activity, negative = inhibition” value was inactive: 2.55%. In the case of `Oc1c(Br)cc(Br)cc1/C=N/NC(=S)N[C@H]1CC2C=CC1C2` (stereo partly drawn), the “activity, negative = inhibition” value is reported as inactive: -23.8%. With `CC1=NN(c2ccc(N)cc2)C(=O)C1` the Potency was inconclusive: 35.5 µM [inhibitor, single point]. In the case of `COc1ccc(-c2ccc(/C=C3/C(=N)N4C(C)=CSC4=NC3=O)o2)c([N+](=O)[O-])c1`, the Potency is reported as inconclusive: 39.8 µM [inhibitor, single point]. For `Cc1ccc(/C=C2\CCC3=C2OC(N)=C(C#N)C3c2ccc(C)cc2)cc1` (stereo not drawn), the Potency was inconclusive: 39.8 µM [inhibitor, single point]. For `CCOc1nc(C)ccc1-c1noc(-c2ccco2)n1`, the Potency was inconclusive: 39.8 µM [inhibitor, partial curve]. With `Cc1ccc(-c2noc(CCC(=O)Nc3cccc(C#N)c3)n2)cc1` the “activity, negative = inhibition” value was inactive: 4.22%. `Cc1cc(C)n(CC(=O)Nc2cccc(C(F)(F)F)c2)n1` was tested, and the Potency was inconclusive: 0.141 µM [inhibitor, full curve, poor fit]. `Cc1cnc(C(=O)OCC(=O)Nc2ccc(Cl)cc2)cn1` was tested, and the Potency was inconclusive: 1.12 µM [inhibitor, full curve]. With `Fc1ccc(-c2cn3cc(C(F)(F)F)cc(Cl)c3n2)cc1` the Potency was inconclusive: 0.224 µM [inhibitor, full curve]. With `CCc1c(C)c(C#N)c2nc3ccccc3n2c1Nc1c(C)n(C)n(-c2ccccc2)c1=O` the Potency was inconclusive: 14.1 µM [inhibitor, partial curve]. In the case of `Cc1noc(C)c1-c1ccc2ncnc(N3CCN(C)CC3)c2c1`, the “activity, negative = inhibition” value is reported as inactive: -6.78%. `CCCCC1=CC2=CC(=O)C(C)(OC(=O)C3CCCC3)C(=O)C2=CO1` (stereo not drawn) was tested, and the Potency was inconclusive: 15.8 µM [inhibitor, partial curve, poor fit]. With `N=C1S/C(=C\c2ccco2)C(=O)N1c1nccs1` the Potency was inconclusive: 35.5 µM [inhibitor, single point]. For `O=[N+]([O-])c1cccc2c[nH]nc12`, the Potency was active: 28.2 µM. With `Cn1c(=O)c(-c2cc(F)cc(F)c2)nc2cnc(N3CCNCC3)nc21` the “activity, negative = inhibition” value was inactive: -5.09%. In the case of `O=C(NN=C1CCN(Cc2ccccc2)CC1)c1ccccc1O`, the “outcome” value is reported as “inactive”. For `O=C(O)c1ccc2c(c1)C(=O)/C(=C\c1ccco1)C2=O`, the Potency was inconclusive: 39.8 µM [inhibitor, single point]. In the case of `CCn1c(SCC(=O)NCCc2ccccc2)nnc1C(C)C`, the Potency is reported as inconclusive: 0.224 µM [inhibitor, full curve]. For `CC(C)C(CO)N1CCN(Cc2ccccc2)CCC1=O` (stereo not drawn), the Potency was inconclusive: 3.55 µM [inhibitor, single point]. With `COc1ccc(Br)cc1/C=c1\sc2nc(-c3ccco3)nn2c1=O` the Potency was active: 8.91 µM. `CCOc1ccc2[nH]c(=O)c(CN(Cc3cccnc3)C(=O)Nc3ccccc3OC)cc2c1` was tested, and the “activity, negative = inhibition” value was inactive: -0.597%. `N#Cc1sc2nc(-c3ccccc3)cc(-c3ccco3)c2c1N` was tested, and the Potency was inconclusive: 17.8 µM [inhibitor, single point]. With `COc1ccccc1-n1c(SCC(=O)Nc2ccccc2C)nc(O)cc1=O` the Potency was active: 10 µM. For `CCn1c(CNc2ccc(OC)cc2)nnc1SCC(=O)N1CCCc2ccccc21`, the activity, negative = inhibition was inconclusive: -37.6% [inhibitor]. With `Cc1ccc(S(=O)(=O)NNC(=O)Nc2ccc(Cl)cc2)cc1` the Potency was active: 22.4 µM. For `C=C(C)C(=O)O[C@H]1C/C(C)=C\C(=O)/C=C(\C)[C@H](O)[C@@H]2OC(=O)C(=C)[C@@H]21`, the Potency was inconclusive: 25.1 µM [inhibitor, partial curve, poor fit]. In the case of `CCOc1ccc(C(=O)Nc2ccc(-c3nc4ccccc4[nH]3)cc2)cc1[N+](=O)[O-]`, the Potency is reported as active: 7.94 µM. For `C#CCCCO/N=C1/C[C@@H](O)[C@@H](O)[C@@H]2[C@@H]3C(=O)N([C@@H](C)c4ccccc4)C(=O)[C@H]3CC[C@@H]12`, the activity, negative = inhibition was inactive: -1.11% [at 11.5 µM]. In the case of `NC(=O)c1ccc2c(=O)n3c(-c4cc(Cl)c(N)c(Cl)c4)csc3nc2c1`, the Potency is reported as inconclusive: 22.4 µM [inhibitor, partial curve].

— PubChem BioAssay AID2549 (National Center for Advancing Translational Sciences (NCATS), 2010)
Also: nearly all actives have a fitted effect of over 30% in size.
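For activity, negative = inhibition in this document: plate controls were vehicle for no effect and no enzyme for full effect.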
Potency is read from the fitted curve at half-maximal effect.
